We go through 2 molecules from patent publication US20240360202A1.

Results are given in words; binding and its absence hold for the method and conditions named. For some assays here: Binding can be weak; no strength is given.

Experiment [1] addresses HLA-A2 on the cell lines of FIG. 3 (human). Put plainly: flow cytometry (MFI) on a panel of cell lines; mAb at 3 ug/ml, plotted against BB7 (HLA-A2) MFI. (Flow cytometry measures light scatter and fluorescence of single cells or particles in a stream.)
Experiment [2] has the same target. Briefly: flow cytometry (MFI) on a panel of cell lines; mAb plotted against BB7 (HLA-A2) MFI.

B1: mAb 2A5 (antibody, V domains shown)
VH: EVQLVQSGGGLVKPGGSLRLSCAASGFTFSDYYMSWIRQAPGKGLEWVSYISSSGSTIYYADSVKGRFTISRDNAKNSLYLQMNSLRAEDTAVYYCARGPLTADAFDIWGQGTMVTVSS
VL: QSVLTQPPSASGTPGQRVTISCSGSSSNIGSNTVNWYQQLPGTAPKLLIYNNNQRPSGVPDRFSGSKSGTSAALAISGLQSEDEADYHCATWDDTRNGPEFGGGTKLTVL
For B1, the binding entry in experiment [1] was “binds”.

B2: mAb 3F8 (antibody, V domains shown)
VH: EVQLLESGGGLVQPGGSLRLSCAASGFTFSDYYMSWVRQAPGKGLEWVSGIYGGGGSTRYADSVKGRFTISRDNSKNTLYLQMNSLRAEDTAVYYCAKDRWGYSSGWHNFDFWGQGTLVTVSS
VL: DIVMTQSPDSLAVSLGERATINCKSSQSVLRSGNNKNDLAWYQQKPGQPPKLLIYWASTRESGVPDRFSGSGSGTDFTLTISSLQAEDVAVYYCQQSSSEPITFGQGTKVEIK
Turning to B2, in experiment [2], the binding result is “no binding (tested: 3 ug/ml)”.
